Measured values from article PMC12591124.
No constants are given. Whether binding was seen depends on the method and setting. Binding seen in cells or lysates may run through a third protein. Some entries that bind do so weakly or less than the wild type.

Protein sequences, listed by entry. Tags and fused reporters are not part of them. Lines headed by an entry give the natural chain unless they say otherwise; changes in a name come on top.
UniProt P08670: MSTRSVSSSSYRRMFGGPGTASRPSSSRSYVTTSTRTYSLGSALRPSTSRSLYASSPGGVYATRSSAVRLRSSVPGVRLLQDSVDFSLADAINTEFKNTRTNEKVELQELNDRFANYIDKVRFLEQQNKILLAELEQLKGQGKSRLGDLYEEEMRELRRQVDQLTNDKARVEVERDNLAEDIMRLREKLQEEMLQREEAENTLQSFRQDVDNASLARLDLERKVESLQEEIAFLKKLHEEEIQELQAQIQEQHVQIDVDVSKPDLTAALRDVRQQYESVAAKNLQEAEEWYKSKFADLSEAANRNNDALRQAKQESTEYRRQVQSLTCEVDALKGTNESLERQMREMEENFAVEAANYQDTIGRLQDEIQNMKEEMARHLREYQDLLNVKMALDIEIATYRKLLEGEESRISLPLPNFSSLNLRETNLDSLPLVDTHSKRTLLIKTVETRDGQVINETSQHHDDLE
UniProt Q99873: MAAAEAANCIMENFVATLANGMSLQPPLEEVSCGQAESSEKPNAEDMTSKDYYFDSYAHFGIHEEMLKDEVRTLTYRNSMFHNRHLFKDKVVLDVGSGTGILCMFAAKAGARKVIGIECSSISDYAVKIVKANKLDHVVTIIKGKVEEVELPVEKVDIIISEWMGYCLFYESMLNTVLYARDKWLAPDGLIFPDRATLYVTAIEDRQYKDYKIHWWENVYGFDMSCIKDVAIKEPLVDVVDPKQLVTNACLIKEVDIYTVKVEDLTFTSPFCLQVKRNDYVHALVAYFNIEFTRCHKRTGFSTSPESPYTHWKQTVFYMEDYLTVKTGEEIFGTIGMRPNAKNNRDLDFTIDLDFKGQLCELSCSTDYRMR

B1: KDM4A (HEK293T) (enzyme, UniProt O75164 1-1064)
chain: MASESETLNPSARIMTFYPTMEEFRNFSRYIAYIESQGAHRAGLAKVVPPKEWKPRASYDDIDDLVIPAPIQQLVTGQSGLFTQYNIQKKAMTVREFRKIANSDKYCTPRYSEFEELERKYWKNLTFNPPIYGADVNGTLYEKHVDEWNIGRLRTILDLVEKESGITIEGVNTPYLYFGMWKTSFAWHTEDMDLYSINYLHFGEPKSWYSVPPEHGKRLERLAKGFFPGSAQSCEAFLRHKMTLISPLMLKKYGIPFDKVTQEAGEFMITFPYGYHAGFNHGFNCAESTNFATRRWIEYGKQAVLCSCRKDMVKISMDVFVRKFQPERYKLWKAGKDNTVIDHTLPTPEAAEFLKESELPPRAGNEEECPEEDMEGVEDGEEGDLKTSLAKHRIGTKRHRVCLEIPQEVSQSELFPKEDLSSEQYEMTECPAALAPVRPTHSSVRQVEDGLTFPDYSDSTEVKFEELKNVKLEEEDEEEEQAAAALDLSVNPASVGGRLVFSGSKKKSSSSLGSGSSRDSISSDSETSEPLSCRAQGQTGVLTVHSYAKGDGRVTVGEPCTRKKGSAARSFSERELAEVADEYMFSLEENKKSKGRRQPLSKLPRHHPLVLQECVSDDETSEQLTPEEEAEETEAWAKPLSQLWQNRPPNFEAEKEFNETMAQQAPHCAVCMIFQTYHQVEFGGFNQNCGNASDLAPQKQRTKPLIPEMCFTSTGCSTDINLSTPYLEEDGTSILVSCKKCSVRVHASCYGVPPAKASEDWMCSRCSANALEEDCCLCSLRGGALQRANDDRWVHVSCAVAILEARFVNIAERSPVDVSKIPLPRFKLKCIFCKKRRKRTAGCCVQCSHGRCPTAFHVSCAQAAGVMMQPDDWPFVVFITCFRHKIPNLERAKGALQSITAGQKVISKHKNGRFYQCEVVRLTTETFYEVNFDDGSFSDNLYPEDIVSQDCLQFGPPAEGEVVQVRWTDGQVYGAKFVASHPIQMYQVEFEDGSQLVVKRDDVYTLDEELPKRVKSRLSVASDMRFNEIFTEKEVKQEKKRQRVINSRYREDYIEPALYRAIME

Experiments:
[1] = molecular target: Flag-vimentin (HeLa) (human) (UniProt P08670); experiment: co-IP; HeLa cells expressing Flag-vimentin transfected with HA-PRMT1 variants; anti-Flag beads; bound HA-PRMT1 detected
[2] = molecular target: vimentin (co-IP with KDM4A, HEK293T) (human) (UniProt P08670); experiment: co-IP; HEK293T cells, with and without KDM4A depletion (Figure S5F); constructs not told in the text shown

Row | Molecule | binding [1] | binding [2]
1 | HA-PRMT1 K145R (v2, HeLa) (from UniProt Q99873 1-371) (enzyme) | binds | –
2 | HA-PRMT1 WT (v2, HeLa) (from UniProt Q99873 1-371) (enzyme) | binds | –
3 | HA-PRMT1 K134R (v2, HeLa) (from UniProt Q99873 1-371) (enzyme) | binds | –
4 | B1 | – | binds
